Laboratory results: PubChem BioAssay AID493246 (Drosophila RNAi Screening Center, 2011)
The deposit covers about 21,000 reagents; shown is a random part of those with a known target gene and a result. Of all reagents, 429 (2%) were called active. 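Values are raw and not normalised between plates; calls rest on per-plate z-scores that were not deposited.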 A number with no mark means an inactive call. Not stated in the record: the amount of reagent, the time to read-out.

Screen: 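Identify essential fly genes by loss of cell viability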 (primary screen)
System: Drosophila Kc and S2R+ cells
Reagents: long dsRNA against Drosophila genes
Detection: 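Cell number per well after knock-down, printed as raw plate values; calls were based on per-plate z-scores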
Scale: Kc cell number and S2R+ cell number: higher = more cells remaining
Active means: 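Counted as a hit if cell number falls by a z-score of at least 3 within its plate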

Knock-down of Pgant35A [DRSC03557] gave: Kc cell number, rep 1 = 1.50e6; Kc cell number, rep 2 = 1.48e6; S2R+ cell number, rep 1 = 1.12e6; S2R+ cell number, rep 2 = 1.20e6.
For CG13613 [DRSC14616] the deposit lists Kc cell number, rep 1 = 1.68e6; Kc cell number, rep 2 = 1.65e6; S2R+ cell number, rep 1 = 1.08e6; S2R+ cell number, rep 2 = 1.13e6.
Silencing of CG10802 [DRSC17762] resulted in: Kc cell number, rep 1 = 5.69e5; S2R+ cell number, rep 1 = 8.37e5.
IKKepsilon [DRSC03550] showed Kc cell number, rep 1 = 1.58e6; Kc cell number, rep 2 = 1.65e6; S2R+ cell number, rep 1 = 1.27e6; S2R+ cell number, rep 2 = 2.96e5.
Against Nse1 [DRSC02147], the entry reads Kc cell number, rep 1 = 1.17e6; Kc cell number, rep 2 = 1.34e6; S2R+ cell number, rep 1 = 5.15e5; S2R+ cell number, rep 2 = 5.18e5.
Depletion of CPT2 [DRSC08553] gave: Kc cell number, rep 1 = 1.20e6; Kc cell number, rep 2 = 1.56e6; S2R+ cell number, rep 1 = 1.09e6; S2R+ cell number, rep 2 = 1.17e6.
Depletion of Dnai2 [DRSC10575] resulted in: Kc cell number, rep 1 = 1.47e6; Kc cell number, rep 2 = 1.47e6; S2R+ cell number, rep 1 = 1.03e6; S2R+ cell number, rep 2 = 1.10e6.
Knock-down of Pkc53E [DRSC05636] resulted in: Kc cell number, rep 1 = 5.94e5; S2R+ cell number, rep 1 = 8.00e5.
Pkc53E [DRSC07510] showed Kc cell number, rep 1 = 1.42e6; Kc cell number, rep 2 = 1.47e6; S2R+ cell number, rep 1 = 1.30e6; S2R+ cell number, rep 2 = 1.33e6.
CysRS [DRSC05948] gave Kc cell number, rep 1 = 1.47e6; Kc cell number, rep 2 = 1.46e6; S2R+ cell number, rep 1 = 1.11e6; S2R+ cell number, rep 2 = 1.14e6.
CG42521 [DRSC10154] showed Kc cell number, rep 1 = 1.74e6; Kc cell number, rep 2 = 1.74e6; S2R+ cell number, rep 1 = 1.40e6; S2R+ cell number, rep 2 = 1.58e6.
CG6126 [DRSC15971] scored Kc cell number, rep 1 = 1.70e6; Kc cell number, rep 2 = 1.90e6; S2R+ cell number, rep 1 = 1.09e6; S2R+ cell number, rep 2 = 1.22e6.
After knock-down of FucTD [DRSC08634] the results were Kc cell number, rep 1 = 1.49e6; Kc cell number, rep 2 = 1.37e6; S2R+ cell number, rep 1 = 1.06e6; S2R+ cell number, rep 2 = 1.30e6.
CG14294 [DRSC14774] showed Kc cell number, rep 1 = 1.49e6; Kc cell number, rep 2 = 1.53e6; S2R+ cell number, rep 1 = 1.06e6; S2R+ cell number, rep 2 = 1.22e6.

2 successive entries already listed, for reference:
Pkc53E [DRSC05636] | Kc cell number, rep 1: 5.94e5; S2R+ cell number, rep 1: 8.00e5
Pkc53E [DRSC07510] | Kc cell number, rep 1: 1.42e6; Kc cell number, rep 2: 1.47e6; S2R+ cell number, rep 1: 1.30e6; S2R+ cell number, rep 2: 1.33e6
